Reference: publication PMC8211105
These are yes or no findings as the source states them, for the method shown. Some results given as binding are weak or reduced against the parent protein; the word gives no strength. Tags and fused reporters may be left off the sequences shown.

Tests used:
[1] = molecular target: MxiN, BACTH fusion (S. flexneri) (UniProt Q6XVX6); experiment: two-hybrid; bacterial adenylate cyclase two-hybrid (BACTH) in cyaA- E. coli BTH101; T18 and T25 fused to N- or C-terminus, eight permutations; read on LB X-gal and MacConkey maltose plates, 30°C; positive if at least one permutation is positive
[2] = molecular target: MxiK, BACTH fusion (S. flexneri) (UniProt P0A227); experiment: as above

| Binder | binding [1] | binding [2] |
| --- | --- | --- |
| MxiN, BACTH fusion (protein, UniProt Q6XVX6 1-231) MKVCNMQKGTLPVSRHHAYDGVVIKRIEKELCKTIKDRDTESKKKAICVIKDATKKAESLRIDAVCDGYQIGIQTAFEHIIDYICEWKLKQNENRRNIEDYITSLLSENLHDERIISTLLEQWLSSLRNTVTELKVVLPKCNLALRKKLELDLHKYRSDVKIILKYSEGNNYIFCSGNQVVEFSPQDVISGVKIELAEKLTKNDKKYFKELAHKKLRQIAEDLLKENPVND | binds |  |
| MxiK, BACTH fusion (protein, UniProt P0A227 1-175) MIRMDGIYKKYLSIIFDPAFYINRNRLNLPSELLENGVIRSEINNLIINKYDLNCDIEPLSGVTAMFVANWNLLPAVAYFIGSQESRLINHSEMVISYYGGKISKQGEAAIRSGFWHLIAWKENISVGIYERINLLFNPIALEGNYTPVERNLSRLNEGMQYAKRHFTGIQTSCL |  | no binding |
